Positions count from the first letter of the chain named. Numbers in names are those of the source. These are yes or no findings as the source states them, for the method shown. Binding seen in cells or lysates may run through a third protein. Some entries that bind do so weakly or less than the wild type.

Experiment [1] concerns the target proteasome subunit α4 of the α4-α4 [DHFR] reporter (α4 [DH] and α4 [FR]) (S. cerevisiae) (UniProt P40303). As to the kind of experiment: split reporter; split-DHFR complementation in living yeast; α4 [DH] and α4 [FR] from centromeric plasmids in an α4Δ strain with WT copies of α3 and PBA3; growth on methotrexate plates, three days at 30 °C.
For experiment [2] the target is unchanged. As to the kind of experiment: split reporter; split-DHFR complementation in living yeast; α4 [DH] and α4 [FR] from centromeric plasmids in an α4Δ strain with α3 or PBA3 deleted; growth on methotrexate plates, three days at 30 °C.
Experiment [3] deals with proteasome subunit α4 with N79C and I155C substitutions (S. cerevisiae) (UniProt P40303). As to the kind of experiment: cross-linking; engineered disulfide crosslinking in yeast extracts (WT or pba3Δ, empty vector or α1 overexpressed); 250 µM CuCl2, 25 °C, 10 minutes; 50 mM HEPES pH 7.5, 150 mM NaCl, 5 mM MgCl2, 2 mM ATP; non-reducing SDS-PAGE, anti-His immunoblot; reversed by DTT.

Experiment [4] addresses T1, proteasome subunit α2-K160C (S. cerevisiae, UniProt P23639 1-250, K160C).
T1 construct: 20S proteasome core particle subunit α2, S. cerevisiae, with an engineered cysteine at the α2-α3 interface; Detected with an anti-His antibody (TetraHis); also called His (α2); source: S. cerevisiae (WT or pba3Δ), in cell extract
T1 sequence (looked up): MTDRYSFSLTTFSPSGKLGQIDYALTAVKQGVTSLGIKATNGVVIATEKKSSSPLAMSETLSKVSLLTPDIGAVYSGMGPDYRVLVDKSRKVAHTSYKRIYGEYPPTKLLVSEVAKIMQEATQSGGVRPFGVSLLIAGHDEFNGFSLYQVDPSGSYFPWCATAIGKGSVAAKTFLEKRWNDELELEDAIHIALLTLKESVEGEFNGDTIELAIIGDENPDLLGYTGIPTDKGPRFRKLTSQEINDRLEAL
Described as above.

B1: proteasome subunit α4 of the α4-α4 [DHFR] reporter (α4 [DH] and α4 [FR]) (protein, UniProt P40303 1-254)
chain: MSGYDRALSIFSPDGHIFQVEYALEAVKRGTCAVGVKGKNCVVLGCERRSTLKLQDTRITPSKVSKIDSHVVLSFSGLNADSRILIEKARVEAQSHRLTLEDPVTVEYLTRYVAGVQQRYTQSGGVRPFGVSTLIAGFDPRDDEPKLYQTEPSGIYSSWSAQTIGRNSKTVREFLEKNYDRKEPPATVEECVKLTVRSLLEVVQTGAKNIEITVVKPDSDIVALSSEEINQYVTQIEQEKQEQQEQDKKKKSNH
Consider B1, for which the binding entry in experiment [1] is on record as “binds weakly”; in experiment [2] it was “binds”.

B2: proteasome subunit α4 with N79C and I155C substitutions (protein, UniProt P40303 1-254)
chain: B1 chain with N79C, I155C
Regarding B2, in experiment [3], the binding entry is “binds”.

B3: proteasome subunit α3-L56C (natural protein, S. cerevisiae, UniProt P23638 1-258, looked up)
chain: MGSRRYDSRTTIFSPEGRLYQVEYALESISHAGTAIGIMASDGIVLAAERKVTSTCLEQDTSTEKLYKLNDKIAVAVAGLTADAEILINTARIHAQNYLKTYNEDIPVEILVRRLSDIKQGYTQHGGLRPFGVSFIYAGYDDRYGYQLYTSNPSGNYTGWKAISVGANTSAAQTLLQMDYKDDMKVDDAIELALKTLSKTTDSSALTYDRLEFATIRKGANDGEVYQKIFKPQEIKDILVKTGITKKDEDEEADEDMK
notes: 20S proteasome core particle subunit α3, S. cerevisiae, with an engineered cysteine at the α2-α3 interface; source: S. cerevisiae (WT or pba3Δ), in cell extract
Regarding B3, the binding result in experiment [4] was “binds”.

The record behind these values is paper PMC6712033, “Proteasome subunit α1 overexpression preferentially drives canonical proteasome biogenesis and enhances stress tolerance in yeast” (Scientific Reports, 2019).
